Experimental data reported in the supplement of paper PMC8728848.
The other results are listed elsewhere or left out.

Assays:
Assay in all cases: glycan array binding signal (z-score within array); higher = stronger binding
Settings in all cases: glycan notation: IUPAC condensed, linker removed
Neu5Ac(a2-6)Gal(b1-4)Glc = target: Neu5Ac(a2-6)Gal(b1-4)Glc
Outline: (§1)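 The binding signal is a Z-score computed within each array and averaged over linkers. Arrays of the same protein sequence at different concentrations or buffers were also averaged together. Data originate from 3228 arrays in the Consortium for Functional Glycomics database, kept only where the protein sequence was available.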

[1] = target: Neu5Ac(a2-6)Gal(b1-4)GlcNAc
Outline: as §1

[2] = target: Neu5Ac(a2-6)Gal(b1-4)GlcNAc(b1-2)Man(a1-3)Man(b1-4)GlcNAc(b1-4)GlcNAc
Outline: as §1

[3] = target: Neu5Ac(a2-6)Gal(b1-4)GlcNAc(b1-2)Man(a1-3)[Gal(b1-4)GlcNAc(b1-2)Man(a1-6)]Man(b1-4)GlcNAc(b1-4)GlcNAc
Outline: as §1

[4] = target: Neu5Ac(a2-6)Gal(b1-4)GlcNAc(b1-2)Man(a1-3)[GlcNAc(b1-2)Man(a1-6)]Man(b1-4)GlcNAc(b1-4)GlcNAc
Outline: as §1

[5] = target: Neu5Ac(a2-6)Gal(b1-4)GlcNAc(b1-2)Man(a1-3)[GlcNAc(b1-2)Man(b1-4)GlcNAc(b1-2)Man(a1-6)]Man(b1-4)GlcNAc(b1-4)GlcNAc
Outline: as §1

[6] = target: Neu5Ac(a2-6)Gal(b1-4)GlcNAc(b1-2)Man(a1-3)[Man(a1-6)]Man(b1-4)GlcNAc(b1-4)GlcNAc
Outline: as §1

[7] = target: Neu5Ac(a2-6)Gal(b1-4)GlcNAc(b1-2)Man(a1-3)[Neu5Ac(a2-6)Gal(b1-4)GlcNAc(b1-2)Man(a1-6)]Man(b1-4)GlcNAc(b1-4)GlcNAc
Outline: as §1

[8] = target: Neu5Ac(a2-6)Gal(b1-4)GlcNAc(b1-2)Man(a1-6)Man(b1-4)GlcNAc(b1-4)GlcNAc
Outline: as §1

[9] = target: Neu5Ac(a2-6)Gal(b1-4)GlcNAc(b1-2)Man(a1-6)[Gal(b1-4)GlcNAc(b1-2)Man(a1-3)]Man(b1-4)GlcNAc(b1-4)GlcNAc
Outline: as §1

[10] = target: Neu5Ac(a2-6)Gal(b1-4)GlcNAc(b1-2)Man(a1-6)[GlcNAc(b1-2)Man(a1-3)]Man(b1-4)GlcNAc(b1-4)GlcNAc
Outline: as §1

[11] = target: Neu5Ac(a2-6)Gal(b1-4)GlcNAc(b1-2)Man(a1-6)[Man(a1-3)]Man(b1-4)GlcNAc(b1-4)GlcNAc
Outline: as §1

[12] = target: Neu5Ac(a2-6)Gal(b1-4)GlcNAc(b1-3)Gal(b1-3)GlcNAc
Outline: as §1

[13] = target: Neu5Ac(a2-6)Gal(b1-4)GlcNAc(b1-3)Gal(b1-4)GlcNAc
Outline: as §1

[14] = target: Neu5Ac(a2-6)Gal(b1-4)GlcNAc(b1-3)Gal(b1-4)GlcNAc(b1-3)Gal(b1-4)GlcNAc
Outline: as §1

[15] = target: Neu5Ac(a2-6)Gal(b1-4)GlcNAc(b1-3)Gal(b1-4)[Fuc(a1-3)]GlcNAc(b1-3)Gal(b1-4)[Fuc(a1-3)]GlcNAc
Outline: as §1

[16] = target: Neu5Ac(a2-6)Gal(b1-4)GlcNAc(b1-3)GalNAc
Outline: as §1

[17] = target: Neu5Ac(a2-6)Gal(b1-4)GlcNAc6S
Outline: as §1

Neu5Ac(a2-6)GalNAc = target: Neu5Ac(a2-6)GalNAc
Outline: as §1

[18] = target: Neu5Ac(a2-6)GalNAc(b1-4)GlcNAc
Outline: as §1

[19] = target: Neu5Ac(a2-6)GlcNAc(b1-4)GlcNAc
Outline: as §1

[20] = target: Neu5Ac(a2-6)GlcNAc(b1-4)GlcNAc(b1-4)GlcNAc
Outline: as §1

Neu5Ac(a2-8)Neu5Ac = target: Neu5Ac(a2-8)Neu5Ac
Outline: as §1

[21] = target: Neu5Ac(a2-8)Neu5Ac(a2-3)Gal(b1-4)Glc
Outline: as §1

[22] = target: Neu5Ac(a2-8)Neu5Ac(a2-3)[GalNAc(b1-4)]Gal(b1-4)Glc
Outline: as §1

[23] = target: Neu5Ac(a2-8)Neu5Ac(a2-8)Neu5Ac
Outline: as §1

[24] = target: Neu5Ac(a2-8)Neu5Ac(a2-8)Neu5Ac(a2-3)Gal(b1-4)Glc
Outline: as §1

[25] = target: Neu5Ac(a2-8)Neu5Ac(a2-8)Neu5Ac(a2-3)[GalNAc(b1-4)]Gal(b1-4)Glc
Outline: as §1

[26] = target: Neu5Ac(a2-8)Neu5Ac(a2-8)Neu5Ac(a2-8)Neu5Ac(a2-3)[GalNAc(b1-4)]Gal(b1-4)Glc
Outline: as §1

[27] = target: Neu5Ac(b2-6)Gal(b1-4)GlcNAc
Outline: as §1

Neu5Ac(b2-6)GalNAc = target: Neu5Ac(b2-6)GalNAc
Outline: as §1

[28] = target: Neu5Ac9Ac(a2-3)Gal(b1-3)GlcNAc
Outline: as §1

[29] = target: Neu5Ac9Ac(a2-3)Gal(b1-4)GlcNAc
Outline: as §1

[30] = target: Neu5Ac9Ac(a2-6)Gal(b1-4)GlcNAc
Outline: as §1

[31] = target: Neu5Gc(a2-3)Gal(b1-3)GlcNAc
Outline: as §1

[32] = target: Neu5Gc(a2-3)Gal(b1-3)[Fuc(a1-4)]GlcNAc
Outline: as §1

Neu5Gc(a2-3)Gal(b1-4)Glc = target: Neu5Gc(a2-3)Gal(b1-4)Glc
Outline: as §1

[33] = target: Neu5Gc(a2-3)Gal(b1-4)GlcNAc
Outline: as §1

[34] = target: Neu5Gc(a2-3)Gal(b1-4)[Fuc(a1-3)]GlcNAc
Outline: as §1

[35] = target: Neu5Gc(a2-6)Gal(b1-4)GlcNAc
Outline: as §1

Neu5Gc(a2-6)GalNAc = target: Neu5Gc(a2-6)GalNAc
Outline: as §1

[36] = target: Neu5Gc(b2-6)Gal(b1-4)GlcNAc
Outline: as §1

B1: CTLX (Homo sapiens), Q6UXS0 (protein)
chain: SLCPLFWMEFKGHCYRFFPLNKTWAEADLYCSEFSVGRKSAKLASIHSWEENVFVYDLVNSCVPGIPADVWTGLHDHRQEGQFEWTDGSSYDYSYWDGSQPDDGVHADPEEEDCVQIWYRPTSALRSWNDNTCSRKFPFVCKIPSLTIH
With B1 the “glycan array binding signal (z-score)” value (Neu5Ac(a2-6)Gal(b1-4)Glc) was -0.67, the “glycan array binding signal (z-score)” value [1] was 0.022 and the “glycan array binding signal (z-score)” value [2] was 0.035. For the same binder, the “glycan array binding signal (z-score)” value [3] was -0.158, the “glycan array binding signal (z-score)” value [4] was 0.474 and the “glycan array binding signal (z-score)” value [5] was -0.339. For the same binder, the “glycan array binding signal (z-score)” value [6] was -0.749, the “glycan array binding signal (z-score)” value [7] was -0.572 and the “glycan array binding signal (z-score)” value [8] was 0.682. The “glycan array binding signal (z-score)” value [9] was 0.542, the “glycan array binding signal (z-score)” value [10] was -0.215 and the “glycan array binding signal (z-score)” value [11] was -0.29. The “glycan array binding signal (z-score)” value [12] was -0.812, the “glycan array binding signal (z-score)” value [13] was -0.462 and the “glycan array binding signal (z-score)” value [14] was 0.3. For the same binder, the “glycan array binding signal (z-score)” value [15] was -0.324, the “glycan array binding signal (z-score)” value [16] was -0.816 and the “glycan array binding signal (z-score)” value [17] was -0.462. For the same binder, the “glycan array binding signal (z-score)” value (Neu5Ac(a2-6)GalNAc) was -1.03, the “glycan array binding signal (z-score)” value [18] was -0.243 and the “glycan array binding signal (z-score)” value [19] was -0.73. The “glycan array binding signal (z-score)” value [20] was -0.675, the “glycan array binding signal (z-score)” value (Neu5Ac(a2-8)Neu5Ac) was 1.67 and the “glycan array binding signal (z-score)” value [21] was -0.365. For the same binder, the “glycan array binding signal (z-score)” value [22] was -0.666, the “glycan array binding signal (z-score)” value [23] was -1.08 and the “glycan array binding signal (z-score)” value [24] was -0.799. For the same binder, the “glycan array binding signal (z-score)” value [25] was -1.09, the “glycan array binding signal (z-score)” value [26] was -0.898 and the “glycan array binding signal (z-score)” value [27] was -0.51. The “glycan array binding signal (z-score)” value (Neu5Ac(b2-6)GalNAc) was -0.381, the “glycan array binding signal (z-score)” value [28] was -0.325 and the “glycan array binding signal (z-score)” value [29] was -0.558. For the same binder, the “glycan array binding signal (z-score)” value [30] was 2.23, the “glycan array binding signal (z-score)” value [31] was -0.63 and the “glycan array binding signal (z-score)” value [32] was -0.794. The “glycan array binding signal (z-score)” value (Neu5Gc(a2-3)Gal(b1-4)Glc) was 0.909, the “glycan array binding signal (z-score)” value [33] was -0.224 and the “glycan array binding signal (z-score)” value [34] was -0.341. The “glycan array binding signal (z-score)” value [35] was -0.99, the “glycan array binding signal (z-score)” value (Neu5Gc(a2-6)GalNAc) was -0.736 and the “glycan array binding signal (z-score)” value [36] was -0.388.
